We go through 2 substances from paper PMC8909100.

By UniProt entry, the sequences of proteins in these tests, tags left out.
UniProt P35222: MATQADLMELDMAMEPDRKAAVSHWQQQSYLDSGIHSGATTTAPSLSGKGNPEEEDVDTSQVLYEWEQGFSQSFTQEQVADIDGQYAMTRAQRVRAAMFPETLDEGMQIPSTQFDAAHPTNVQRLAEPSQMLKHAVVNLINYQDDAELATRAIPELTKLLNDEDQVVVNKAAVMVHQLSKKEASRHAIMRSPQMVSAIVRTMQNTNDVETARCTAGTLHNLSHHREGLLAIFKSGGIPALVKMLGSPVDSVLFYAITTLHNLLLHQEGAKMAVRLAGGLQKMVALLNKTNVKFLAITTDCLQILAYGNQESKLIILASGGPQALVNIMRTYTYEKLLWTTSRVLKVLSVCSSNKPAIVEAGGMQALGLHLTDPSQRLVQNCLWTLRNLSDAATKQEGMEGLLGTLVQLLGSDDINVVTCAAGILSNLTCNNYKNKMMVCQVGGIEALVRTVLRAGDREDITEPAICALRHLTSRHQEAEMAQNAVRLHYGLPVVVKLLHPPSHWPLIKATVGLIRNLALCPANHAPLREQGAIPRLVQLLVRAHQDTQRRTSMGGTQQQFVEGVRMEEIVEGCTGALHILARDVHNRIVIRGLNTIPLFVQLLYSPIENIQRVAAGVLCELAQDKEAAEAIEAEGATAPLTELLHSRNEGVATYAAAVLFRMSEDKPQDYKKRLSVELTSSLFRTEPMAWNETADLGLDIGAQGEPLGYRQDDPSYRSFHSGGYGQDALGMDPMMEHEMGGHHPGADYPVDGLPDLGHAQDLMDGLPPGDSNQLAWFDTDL
UniProt O15540: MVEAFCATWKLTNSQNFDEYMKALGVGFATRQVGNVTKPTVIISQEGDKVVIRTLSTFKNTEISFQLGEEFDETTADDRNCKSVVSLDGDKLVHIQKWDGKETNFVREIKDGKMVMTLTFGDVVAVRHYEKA

Results are given in words; binding and its absence hold for the method and conditions named. Binding seen in cells or lysates may run through a third protein. Some results given as binding are weak or reduced against the parent protein; the word gives no strength.

In the test the target is HA-tagged-β-catenin (UniProt P35222). As to the kind of experiment: co-IP; HA-tagged β-catenin precipitated with HA affinity agarose from NP-40 lysate overnight at 4 °C; 5 washes in 150 mM NaCl, 10 mM HEPES pH 7.4, 0.1% NP-40; Western blot; methods name 293FT cells, legends name A549 cells; Figure 5F with or without FABP7 overexpression.

“fatty acid binding protein 7 (FABP7), endogenous (from UniProt O15540 1-132)”: the binding entry is recorded as “binds”.
In the case of “FABP7, ectopically overexpressed (from UniProt O15540 1-132)”, the binding entry is listed as “binds”.
